Data on 1 molecule can be found in patent publication US5328830A, “Potassium channel modulators” (Miles Inc., priority 1992, dated 1994).

In the data set the test system is CMPD-I-sensitive, K^+ channel binding site. The experiment in a line: [^3 H]CMPD-I ligand binding to intact RINm5F cells. More on the design: species or system rat. How it is done:
The cells were fed three times a week and passed weekly with 0.25% trypsin/0.02% EDTA (JRH Biosciences, Lenexa, Kans.). For intact cell binding experiments, RINm5F cells were plated onto 60 mm polystyrene petri dishes (Corning) at 5×10^6 cells/dish and grown for 3 days without a change of media. Alternatively, cells were seeded 1×10^6 cells/dish and grown for 7 days with the last feeding two days prior to use. Final cell density was 10-20 ×10^6 cells/dish. […] Intact cell binding was performed with the cells attached to the dishes. Binding was terminated by three successive 3 ml washes of cold (4° C.) buffer. Cells were removed from the dish in 1.6 ml of 0.5 N NaOH, briefly sonicated and radioactivity was quantitated with a liquid scintillation counter using 10 ml cocktail (Ultima Gold, Packard). Statistical analysis to determine KD and BMax was accomplished using nonlinear regression (Enzfitter, Elsevier-Biosoft, Cambridge, UK). IC50 values were determined using a sigmoidal fit of mean percent inhibition versus log of concentration. […] Each sample was counted for at least one minute by a liquid scintillation system set for counting tritium. Total protein content of each dish was determined by the method of Bradford with bovine serum albumin used as the standard. […] IC50 values were calculated from the plot of the fraction of maximal inhibition versus Log of concentration (Enzfitter, Id.).

For `[3H]c1cc([3H])c(NC(=C[N+](=O)[O-])NC(C)C(C)(C)C)c(OCC)c1` (single isomer, unassigned) [[^3 H]CMPD-I], the BMax was determined as 42 fmol/mg total protein (Scatchard analysis (FIG. 3)) and 50 fmol/mg total protein (determined by saturation analysis).
